Data taken from paper PMC9299586.
For at least one entry, the source does not settle the construct or the ends of the probe. A negative result means that nothing was seen under these conditions.

target: His-SlPIF3 (bHLH domain) (Solanum lycopersicum) (UniProt A0A3Q7EQR7); assay: EMSA; conditions: LightShift Chemiluminescent EMSA Kit (Thermo Fisher); pH and temperature not stated; recombinant protein; residues 421-535; protein details: His (pET-32a vector); label: biotin (3' end labelling kit)

Sequence	binding result
AATTCATCTTCTCCACGTGACAACAACAAA (double strand) [ProSlGLT1-B]	binds
AATTCATCTTCTCGTGACAACAACAAA (double strand) [mProSlGLT1-B]	no binding
ATGAAATTGCCACGTGTCATTAAACGTGAG (double strand) [ProSlMYB-Like-B]	binds
ATGAAATTGCCCCCTGTCATTAAACGTGAG (double strand) [mProSlMYB-Like-B]	no binding
CTTTTTAATCACACGTGATCTTATATCTCA (double strand) [ProSlCWIN9-B]	binds
CTTTTTAATCACCCCCCATCTTATATCTCA (double strand) [mProSlCWIN9-B]	no binding
TGCCACTTTCTCATGTGAAACTCAAAATTT (double strand) [ProSlToFZY2-B]	no binding
